Source: PubChem BioAssay AID1224828 (NIAID, 2016)
Test: 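Knock-downs that increase or decrease LPS-induced p65 nuclear translocation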 (primary screen). Cells: mouse RAW264.7 G9 macrophage reporter cells (GFP-p65, Tnf promoter-mCherry). Reagents: siRNA pool against mouse genes, 100 nM. Timing: 2 days siRNA transfection, then 40 min LPS before fixation. Challenge: LPS (Salmonella minnesota R595) at 10 ng/ml. Detection: 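Microscopy ratio of nuclear to perinuclear-ring GFP-p65 signal, scaled to the plate median; gene score is the average of two replicate robust z-scores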. Scale: p65 translocation robust z-score: higher = more nuclear NF-kappaB p65 after LPS than the plate median; nuclear/cytoplasmic p65 ratio: higher = more nuclear NF-kappaB p65. Active means: 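Active if robust z is above 3.3 (negative regulators) or below -1.56, the Tlr4 control median (positive regulators); activity score 50 or more; control wells not called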. Meaning of the calls: active = hit (p65 shift raised or lowered); inactive = no clear change.
The deposit covers about 17,000 reagents; shown is an unselected part. Of all reagents, 762 (4.5%) got an active call. 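Active calls include both raised and lowered p65 entry, mostly lowered; wells with fewer than 50 cells lack a z-score.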 Raw values are not corrected between plates. The numbers tell different reagents against one gene apart. Some reagents were tested in more than one well and are listed for each.

| target gene | reagent no. | p65 translocation robust z-score | nuclear/cytoplasmic p65 ratio, rep 1 | nuclear/cytoplasmic p65 ratio, rep 2 | low cell count flag | call |
| --- | --- | --- | --- | --- | --- | --- |
| D630023F18Rik (GeneID 98303) | 1 | -1.01 | 1.38 | 1.44 | enough cells to score | inactive |
| Cr1l (GeneID 12946) | 1 | -0.53 | 1.48 | 1.72 | enough cells to score | inactive |
| Sult3a1 (GeneID 57430) | 1 | – | 0 | 1.14 | fewer than 50 cells per well; well left out of scoring | inactive |
| Vmn1r35 (GeneID 171185) | 1 | 0.83 | 1.48 | 1.34 | enough cells to score | inactive |
| Sost (GeneID 74499) | 1 | -2.21 | 1.19 | 1.26 | enough cells to score | active |
| Rasgrf1 (GeneID 19417) | 1 | -0.65 | 1.43 | 1.42 | enough cells to score | inactive |
| Or7g27 (GeneID 258249) | 1 | 0.9 | 1.46 | 1.37 | enough cells to score | inactive |
| Ms4a6b (GeneID 69774) | 1 | 0.47 | 1.53 | 1.38 | enough cells to score | inactive |
| Pth (GeneID 19226) | 1 | -0.69 | 1.47 | 1.42 | enough cells to score | inactive |
| Sdhaf2 (GeneID 66072) | 1 | 1.19 | 1.68 | 1.63 | enough cells to score | inactive |
| Clec5a (GeneID 23845) | 1 | -0.7 | 1.48 | 1.68 | enough cells to score | inactive |
| Sgpl1 (GeneID 20397) | 1 | -1.39 | 1.19 | 1.12 | enough cells to score | inactive |
| Tut7 (GeneID 214290) | 1 | 1.62 | 1.57 | 1.46 | enough cells to score | inactive |
| Tut7 (GeneID 214290) | 2 | – | 1.36 | 1.31 | fewer than 50 cells per well; well left out of scoring | inactive |
| Pxmp4 (GeneID 59038) | 1 | -0.09 | 1.35 | 1.22 | enough cells to score | inactive |
| Egfl8 (GeneID 81701) | 1 | -0.1 | 1.48 | 1.33 | enough cells to score | inactive |
| Lrrc4c (GeneID 241568) | 1 | 0.87 | 1.54 | 1.59 | enough cells to score | inactive |
| Vmn1r49 (GeneID 24112) | 1 | 1.12 | 1.5 | 1.38 | enough cells to score | inactive |
| Il18bp (GeneID 16068) | 1 | -0.67 | 1.35 | 1.33 | enough cells to score | inactive |
| Txndc12 (GeneID 66073) | 1 | – | 1.52 | 1.3 | fewer than 50 cells per well; well left out of scoring | inactive |
| Cln5 (GeneID 211286) | 1 | -1.57 | 1.29 | 1.15 | enough cells to score | active |
| Atp2a1 (GeneID 11937) | 1 | 0.27 | 1.65 | 1.66 | enough cells to score | inactive |
| Vmn1r27 (GeneID 171206) | 1 | -0.31 | 1.4 | 1.15 | enough cells to score | inactive |
| Jph2 (GeneID 59091) | 1 | 0.62 | 1.62 | 1.53 | enough cells to score | inactive |

Next part (7 carried over from the part before).
| target gene | reagent no. | p65 translocation robust z-score | nuclear/cytoplasmic p65 ratio, rep 1 | nuclear/cytoplasmic p65 ratio, rep 2 | low cell count flag | call |
| --- | --- | --- | --- | --- | --- | --- |
| Vmn1r49 (GeneID 24112) | 1 | 1.12 | 1.5 | 1.38 | enough cells to score | inactive |
| Il18bp (GeneID 16068) | 1 | -0.67 | 1.35 | 1.33 | enough cells to score | inactive |
| Txndc12 (GeneID 66073) | 1 | – | 1.52 | 1.3 | fewer than 50 cells per well; well left out of scoring | inactive |
| Cln5 (GeneID 211286) | 1 | -1.57 | 1.29 | 1.15 | enough cells to score | active |
| Atp2a1 (GeneID 11937) | 1 | 0.27 | 1.65 | 1.66 | enough cells to score | inactive |
| Vmn1r27 (GeneID 171206) | 1 | -0.31 | 1.4 | 1.15 | enough cells to score | inactive |
| Jph2 (GeneID 59091) | 1 | 0.62 | 1.62 | 1.53 | enough cells to score | inactive |
| Zfp62 (GeneID 22720) | 1 | -0.35 | 1.38 | 1.2 | enough cells to score | inactive |
| 9030612E09Rik (GeneID 74530) | 1 | – | 1.28 | 1.67 | fewer than 50 cells per well; well left out of scoring | inactive |
| BCLP2 | 1 | 0.38 | 1.48 | 1.4 | enough cells to score | inactive |
| Rhod (GeneID 11854) | 1 | 0.19 | 1.42 | 1.66 | enough cells to score | inactive |
| Ctnnd1 (GeneID 12388) | 1 | -0.3 | 1.36 | 1.34 | enough cells to score | inactive |
| A330015D16RIK | 1 | 2.66 | 1.59 | 1.9 | enough cells to score | inactive |
| Itgb3bp (GeneID 67733) | 1 | 1.15 | 1.74 | 1.83 | enough cells to score | inactive |
| Mdh2 (GeneID 17448) | 1 | 0.38 | 1.84 | 1.54 | enough cells to score | inactive |
| Ctf2 (GeneID 244218) | 1 | 0.13 | 1.58 | 1.82 | enough cells to score | inactive |
| Tor3a (GeneID 30935) | 1 | 1.96 | 1.23 | 1.4 | enough cells to score | inactive |
| Prl2c2 (GeneID 18811) | 1 | 1.08 | 1.54 | 1.32 | enough cells to score | inactive |
| Espn (GeneID 56226) | 1 | -0.64 | 1.48 | 1.4 | enough cells to score | inactive |
| Gas1 (GeneID 14451) | 1 | 0.14 | 1.38 | 1.45 | enough cells to score | inactive |
| Ccr5 (GeneID 12774) | 1 | -0.16 | 1.5 | 1.54 | enough cells to score | inactive |
| Zfp1006 (GeneID 72139) | 1 | 1.51 | 1.56 | 1.66 | enough cells to score | inactive |
| Egln1 (GeneID 112405) | 1 | -1.48 | 1.26 | 1.18 | enough cells to score | inactive |
| Lrrc8c (GeneID 100604) | 1 | – | 1.2 | 1.2 | fewer than 50 cells per well; well left out of scoring | inactive |
| Slc25a28 (GeneID 246696) | 1 | -1.27 | 1.22 | 1.12 | enough cells to score | inactive |
| Pabpn1 (GeneID 54196) | 1 | 0.02 | 1.45 | 1.42 | enough cells to score | inactive |
| Nudt5 (GeneID 53893) | 1 | -1 | 1.5 | 1.43 | enough cells to score | inactive |
| Or4a73 (GeneID 258788) | 1 | 1.94 | 1.9 | 1.6 | enough cells to score | inactive |
| Crisp3 (GeneID 11572) | 1 | 0.76 | 1.71 | 1.88 | enough cells to score | inactive |
| Or7e174 (GeneID 258552) | 1 | – | 1.48 | 1.72 | fewer than 50 cells per well; well left out of scoring | inactive |
| C230013L11Rik (GeneID 100504186) | 1 | – | 1.24 | 1.33 | fewer than 50 cells per well; well left out of scoring | inactive |
| E130308A19Rik (GeneID 230259) | 1 | – | 1.1 | 1.15 | fewer than 50 cells per well; well left out of scoring | inactive |
| Gpr119 (GeneID 236781) | 1 | 0.07 | 1.49 | 1.62 | enough cells to score | inactive |
| Gpr119 (GeneID 236781) | 1 | 0.27 | 1.55 | 1.62 | enough cells to score | inactive |
| Pcdhb19 (GeneID 93890) | 1 | 0.71 | 1.56 | 1.49 | enough cells to score | inactive |
| Pdia5 (GeneID 72599) | 1 | 0.2 | 1.6 | 1.32 | enough cells to score | inactive |
| Ctsk (GeneID 13038) | 1 | -1.36 | 1.41 | 1.19 | enough cells to score | inactive |
| Zfp398 (GeneID 272347) | 1 | 0.99 | 1.71 | 1.58 | enough cells to score | inactive |
| Pstk (GeneID 214580) | 1 | – | 1.18 | 1.25 | fewer than 50 cells per well; well left out of scoring | inactive |
| Scara5 (GeneID 71145) | 1 | 0.81 | 1.47 | 1.39 | enough cells to score | inactive |
| Tmed10 (GeneID 68581) | 1 | -0.46 | 1.54 | 1.55 | enough cells to score | inactive |
| Pnrc2 (GeneID 52830) | 1 | -0.62 | 1.42 | 1.32 | enough cells to score | inactive |
